# PubChem BioAssay AID2685 (National Center for Advancing Translational Sciences (NCATS), 2010)
# The other results are listed elsewhere or left out. Further columns of the screen follow, without active or inactive calls. Most of these compounds were active or inconclusive in the main read-out, so they are no random draw. The note in brackets gives the kind of curve behind each potency; many fits are weak.
# Assay: qHTS Assay for Lipid Storage Modulators in Drosophila S3 Cells;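 for cell number change: cells counted by Cell Tracker Red CMTPX staining in the red channel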
# Conditions: BODIPY lipid droplet fluorescence, 18-24 h; for cell number change: measured here: cell count max response, cells fed with added oleic acid
# Method in brief: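 Laser-scanning cytometry quantifies lipid droplet accumulation (500–530 nm total intensity; droplet/cell object ratio) in oleic acid-fed (400 uM added) Drosophila S3 cells treated with a concentration series. 20 uM Triacsin C defined 100% inhibition.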
# [1] = measured here: lipid fluorescence (Fed channel) AC50, cells fed with added oleic acid
# [2] = measured here: cell number channel AC50, cells fed with added oleic acid
SMILES,cell number change [%],AC50 [1],AC50 [2]
O=C(C(Sc1ccccc1)c1ccccc1)N1CCN(c2ccccc2F)CC1 (stereo not given),-22.8,"29.1 µM [falling, single point]",–
COC(=O)C1C(=O)C2=C(CC1C)NC(=O)CC2c1cccc(C)c1 (stereo not given),19.9,"3.26 µM [rising, full curve, poor fit]",–
CN(Cc1nc(-c2ccccn2)no1)S(=O)(=O)c1ccc(Cl)cc1,225,"10.3 µM [rising, partial curve]","16.4 µM [rising, partial curve]"
O=C(NC(Cc1c[nH]c2ccccc12)C(=O)O)/C(=C/c1ccco1)NC(=O)c1ccccc1 (stereo not given),-10.8,"0.259 µM [falling, partial curve, poor fit]","1.16 µM [falling, full curve]"
CN(C(=O)c1ccc2c(c1)OCCO2)c1c(N)n(Cc2ccccc2)c(=O)[nH]c1=O,1.45,"0.461 µM [falling, full curve, poor fit]","0.366 µM [falling, full curve, poor fit]"
CC1CCCN(C(=O)c2cccc(S(=O)(=O)N3CCCC3)c2)C1 (stereo not given),-3.2,"0.103 µM [rising, full curve, poor fit]",–
O=C(c1ccc([N+](=O)[O-])o1)N1CCN(c2nc3c(F)cc(F)cc3s2)CC1,-30.7,"0.651 µM [falling, full curve]","10.3 µM [falling, partial curve]"
Cc1ccc2[nH]c(=O)c(C(c3nnnn3CC3CCCO3)N3CCCc4ccccc43)cc2c1 (stereo not given),27.9,–,"2.91 µM [rising, full curve, poor fit]"
CCOC(=O)C1CCN(C(=S)Nc2ccc(C)cc2)CC1,-7.4,"0.461 µM [rising, single point]",–
COc1cccc(C(=O)Nc2cc3c(cc2Br)OCCCO3)c1,37.9,"6.51 µM [rising, full curve, poor fit]","29.1 µM [rising, single point]"
N#CC1CCN(C(=O)c2ccc3c(Cl)c4c(nc3c2)CCCC4)CC1,-1.79,"29.1 µM [falling, single point]",–
CC(=O)c1c(C)nc2ccc(Br)cc2c1C(=O)O,-0.395,"2.59 µM [falling, partial curve]",–
CC(NC(=O)c1sc2ccccc2c1Cl)C1CCCO1 (stereo not given),-39.8,–,"29.1 µM [falling, single point]"
O=[N+]([O-])c1cc(C(F)(F)F)ccc1Cl,-1.81,"0.184 µM [rising, full curve]",–
C=CCn1c(=O)c(C(=O)Nc2ccccc2OC)c(O)c2ccccc21,57,"2.31 µM [rising, single point]","5.17 µM [rising, full curve]"
C[C@@H]1CN(C(=O)c2nc3ccc(Cl)cn3c2CN[C@H]2CCCCNC2=O)C[C@H](C)O1,17.2,–,–
COc1ccc(CCNC(=O)CCCn2c(SCC#N)nc3ccccc3c2=O)cc1OC,-4.77,–,–
COc1ccc(/C=N/NC(=O)c2nc(-c3ccccc3)cc(-c3ccccc3)n2)cc1O,-1.67,–,–
COc1ccc(N2CCN(C(=O)COc3ccc4c(C)c(C)c(=O)oc4c3C)CC2)cc1,71.6,"1.84 µM [rising, full curve, poor fit]","11.6 µM [rising, partial curve]"
Cc1cc(=O)n(CC(C)C)c(O)c1C#N,-74.3,"20.6 µM [falling, single point]","16.4 µM [falling, partial curve]"

# An excerpt from above in order of count of non-hydrogen atoms, rising:
SMILES,cell number change [%],AC50 [1],AC50 [2]
CC(NC(=O)c1sc2ccccc2c1Cl)C1CCCO1 (stereo not given),-39.8,–,"29.1 µM [falling, single point]"
C[C@@H]1CN(C(=O)c2nc3ccc(Cl)cn3c2CN[C@H]2CCCCNC2=O)C[C@H](C)O1,17.2,–,–
Cc1ccc2[nH]c(=O)c(C(c3nnnn3CC3CCCO3)N3CCCc4ccccc43)cc2c1 (stereo not given),27.9,–,"2.91 µM [rising, full curve, poor fit]"

# One compound at a time, as listed above. Values in the order: cell number change [%] | AC50 [1] | AC50 [2]
# CC1CCCN(C(=O)c2cccc(S(=O)(=O)N3CCCC3)c2)C1 (stereo not given) is listed as -3.2 | 0.103 µM [rising, full curve, poor fit] | –
# COC(=O)C1C(=O)C2=C(CC1C)NC(=O)CC2c1cccc(C)c1 (stereo not given) is listed as 19.9 | 3.26 µM [rising, full curve, poor fit] | –

# (next part)

SMILES,cell number change [%],AC50 [1],AC50 [2]
COc1ccc(S(=O)(=O)N2CCN(c3ccc4nnc(-c5ccc(F)cc5)n4n3)CC2)cc1,11.4,–,"0.206 µM [rising, full curve, poor fit]"
O=C(COC(=O)CCC(=O)c1cccs1)NC1CCCCC1,18.4,"23.1 µM [rising, partial curve]",–
CCn1c(=O)cc(SCC(=O)N2CCN(C)CC2)c2ccccc21,–,"6.51 µM [rising, single point]",–
COc1ccc(S(=O)(=O)N2CCCOC2CNC(=O)C(=O)NCCCn2ccnc2)cc1OC (stereo not given),-28.1,"16.4 µM [falling, single point]",–
COC(=O)c1c(C(=O)c2ccc(Br)cc2)n(C)c2ccccc12,-5,–,–
Cc1ccc(NC(=O)CCOc2ccccc2)cc1S(=O)(=O)Nc1ccccc1Cl,6.58,"6.51 µM [rising, single point]",–
COc1cc(C2N(Cc3ccccc3)CCN2Cc2ccccc2)ccc1OC(C)=O,36.5,–,"29.1 µM [rising, single point]"
Cc1nnc(SCc2cc(=O)n3[nH]cnc3n2)s1,-25.4,"2.06 µM [falling, full curve]","2.31 µM [falling, full curve, poor fit]"
COc1ccccc1OCC(=O)NCCSCc1ccccc1Cl,107,"6.51 µM [falling, partial curve]","6.51 µM [falling, partial curve]"
Cc1ccc(-n2c(C)cc(C)c(C#N)c2=O)cc1,-0.167,"18.4 µM [falling, single point]",–
CCOCCCNC(=O)CCNS(=O)(=O)c1ccc(C)cc1,-162,"20.6 µM [falling, partial curve]","20.6 µM [falling, partial curve]"
COc1ccc(NC(=O)CSc2nc3c(c(=O)n2-c2ccc(F)cc2)SCC3)cc1,–,"29.1 µM [rising, single point]",–
CCOC(=O)c1cc2occc2n1Cc1ccc(F)cc1,-6.96,–,"0.326 µM [falling, single point]"
Cc1cccc(NC(=O)CSc2nsc(SCC(=O)Nc3cccc(C)c3)c2C#N)c1,–,"32.6 µM [falling, single point]",–
Cc1cnc(C(=O)Nc2ccccc2F)cn1,-141,–,"29.1 µM [falling, single point]"
CCC(NC(=O)c1cc(COc2c(F)cccc2F)on1)c1ccncc1 (stereo not given),23.4,"0.58 µM [rising, single point]","0.184 µM [rising, full curve, poor fit]"
COc1nccc(Nc2ccccc2)c1C#N,-14.5,–,"0.651 µM [falling, full curve, poor fit]"
CCOC(=O)C1CCN(C(=O)CSc2nnc(-c3ccco3)n2-c2ccccc2)CC1,25.9,–,–
Cc1cc(C)cc(NS(=O)(=O)c2cc(C(=O)NCc3ccccn3)ccc2Cl)c1,19.9,"0.231 µM [rising, full curve, poor fit]",–
CC(C)N(Cc1ccccc1)C(=S)NC(=O)C1(C)CC1(Cl)Cl (stereo not given),18.9,–,"0.291 µM [rising, partial curve, poor fit]"

SMILES,cell number change [%],AC50 [1],AC50 [2]
CCc1nn(CCCC(=O)N2CCC(C)CC2)c(=O)c2cc3occc3n12,–,"2.31 µM [falling, full curve]",–
COc1ccc(CCC(=O)Nc2cccc(S(=O)(=O)N3CCCCCC3)c2)cc1OC,-8.28,–,"0.259 µM [falling, partial curve, poor fit]"
COc1cc(OC)c(C#N)c(S(=O)(=O)Cc2ccccc2)c1,-4.75,"11.6 µM [falling, single point]",–
COC(=O)c1ccc(COc2ccc(C3C4=C(CCCC4=O)Nc4onc(C)c43)cc2)cc1 (stereo not given),–,–,"6.51 µM [rising, partial curve, poor fit]"
Cc1ccccc1Cn1cc(NC(=O)c2noc3c2CC(C(C)(C)C)CC3)cn1 (stereo not given),-25.3,"29.1 µM [falling, partial curve, poor fit]","3.26 µM [falling, full curve, poor fit]"
O=C(O)CSc1nc2ccccc2o1,1.58,–,–
CCN(C(=O)COC(=O)CNC(=O)c1ccc(F)cc1)C1CCS(=O)(=O)C1 (stereo not given),36.6,"2.91 µM [falling, single point]","6.51 µM [falling, partial curve, poor fit]"
CSc1ccc(CN2CCC(Oc3ccc(C(=O)N4CCCC4)cc3)CC2)cc1,-7.65,–,–
CC(C)CNC(=O)C1CCN(c2ccc(S(=O)(=O)N3CCOCC3)cc2Cl)CC1,2.67,"0.92 µM [falling, full curve, poor fit]",–
O=C(NN1C(=O)/C(=C/c2cc([N+](=O)[O-])ccc2O)SC1=S)c1ccccc1O,–,"18.4 µM [rising, partial curve, poor fit]",–
COc1ccc(S(=O)(=O)N(C)C)cc1NCC(=O)Nc1cccc(C#N)c1,27.6,–,–
Cc1ccc(C)c(S(=O)(=O)NC2CCSC2=O)c1 (stereo not given),2.81,–,–
Cc1nnc(N=c2ssnc2Cl)o1,-54.7,–,"8.2 µM [falling, partial curve, poor fit]"
COC(=O)C1=NN(C(=O)c2cccc(Cl)c2)C(O)(C(C)(C)C)C1 (stereo not given),14.1,"7.31 µM [rising, partial curve, poor fit]",–
Cc1onc(-c2c(F)cccc2Cl)c1C(=O)NC1CC1,–,"29.1 µM [rising, single point]",–
COCCNC(=O)Cn1cc2c(n1)CCC(C)C2 (stereo not given),9.06,"29.1 µM [rising, single point]",–
CC(NC(=O)c1ccccc1SCC(=O)N1CCCC1)c1ccccc1 (stereo not given),-15.6,"0.00461 µM [falling, full curve, poor fit]",–
COc1ccc(NC(=O)C2CCN(S(=O)(=O)c3ccc(N4CCCC4=O)cc3)CC2)cc1OC,4.25,–,–
Cc1noc(C)c1CSCC(=O)Nc1ccc(S(C)(=O)=O)cc1,-26.9,"29.1 µM [falling, single point]",–
